Source: PubChem BioAssay AID602296 (Broad Institute, 2012)
In all, about 2,000 compounds went through this assay and about 190 (9.5%) were called active. Inconclusive results (about 14%) are left out.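 The calls were made as follows: active = fitted activation curve crossing 40% at a concentration no higher than the sample's top valid tested dose; inconclusive = flat fitted curve at 30% to 70% activation, or poor curve fit; inactive = signal decrease, flat curve within 30%, or the rest.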 Most of the strongest results are missing from this list.

test: sustained heat shock response element induction – cell-based, mouse, luciferase, cherry-pick, dose, confirmation (AID 602296); settings: NIH3T3-HGL HSF-1 response element luciferase, 48 h; at 26 µM (top of the series) unless noted;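 also: test compounds applied by themselves with no MG132 co-treatment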

activation, inactive:
COc1ccc(C(=O)/C=C2/C(=O)Nc3ccccc32)cc1OC 14.5%
Cc1ccc(Cl)cc1N1CCN(C2CCCCC2NS(=O)(=O)c2ccccc2)CC1 (stereo unspecified) 3.93%
O=C(CCCSc1nc2ccccc2[nH]1)N1CCN(c2ccc([N+](=O)[O-])cc2)CC1 -50.4% [at 12 µM]
COc1cc(OC)c(N(C)S(=O)(=O)c2cccc(C(=O)Nc3nnc(C4CC4)s3)c2)cc1Cl -3.17%
CC(=O)C1=C(C)NC2(O)c3ccccc3C(=O)C12O (stereo unspecified) -9.25%
COc1cc(C2C(C(=O)c3cc4ccccc4o3)=C(O)C(=O)N2c2cc(C)on2)cc(OC)c1OC (stereo unspecified) 4.2%
COc1cccc(/C=C2\N=C(SC)SC2=O)c1OC 12.8%
O=C(Nc1cccc(Cl)c1)C1CCCN(S(=O)(=O)c2ccc(F)cc2)C1 (stereo unspecified) -0.929%
O=C(c1nnsc1S(=O)c1ccc(Cl)cc1)N1CCOCC1 (stereo unspecified) -104%
Cc1nc2ccccc2n1CC(O)COCC1CC=CCC1 (stereo unspecified) -34.1%
COc1ccc2c(c1)-c1c(sn(-c3ccccc3)c1=S)C(C)(C)N2 -74.9%
CCOc1ccc(N2C(=O)/C(=C\c3ccc(O)c(OC)c3)S(=O)(=O)C2c2cccc([N+](=O)[O-])c2)cc1 (stereo unspecified) -19.8%
COc1ccc(-n2c(SCc3ccc([N+](=O)[O-])cc3)nnc2-c2ccc(C)cc2)cc1 -39.7%
Oc1c(Br)cc(Br)cc1C=Nc1cccc2ncccc12 -4.96%
Oc1c(C(c2ccccn2)N2CCOCC2)ccc2cccnc12 (stereo unspecified) -44%
CCOC(=O)c1c(NC(C)=O)sc2c1CCC(C=NCCCN(CC)CC)=C2Sc1ccccc1 13%
Cc1ccc2c(c1)c(C)c(C)n2CC(O)Cn1nc(C)c(Br)c1C (stereo unspecified) -92.5%
O=C1/C(=N\S(=O)(=O)c2cccs2)C([n+]2cccc(Cc3ccccc3)c2)=C([O-])c2ccccc21 -48.6%
Cc1ccc(N=C2NC(=O)CS2)cc1 -15.4%
CCc1ccc(NC(=O)CSc2nc3n[nH]c(C)c3c(=N)n2-c2cccc(OC)c2)cc1 -49.1%
COC(=O)c1cc(S(=O)(=O)C(C)C)c(S(C)=O)s1 (stereo unspecified) -10.3%
COc1cc(C2CC(c3cccnc3)=NN2c2ccc(F)cc2)cc(OC)c1OC (stereo unspecified) -5.22%
CN(C)CCN1C(=O)C2C(C(=O)Nc3cc(Cl)cc(Cl)c3)C3C=CC2(O3)C1C(=O)NC1CCCCC1 (stereo unspecified) -7.89%
CCN(CC)S(=O)(=O)c1cccc(C(=O)OCC(=O)N2CC(=O)Nc3ccccc32)c1 4.57%
CCOC(=O)c1sc2c(c1C)C(c1cccs1)C1=C(CCCC1=O)N2 (stereo unspecified) -78.9%
COc1ccc(OC)c(NC(=O)CNC(c2ccccc2)c2ccccc2)c1 -71.9%
O=C(CCC(=O)N1CCN(c2ccc(O)cc2)CC1)c1ccc(Br)cc1 3.02%
Cc1cc(C)c(C(=O)/C=C/c2cccc3ccccc23)c(=O)[nH]1 7.58% [at 6 µM]
NC(=O)c1nsc(C(=O)N(c2ccccc2)C(C(=O)NCC2CCCO2)c2cccs2)c1N (stereo unspecified) -3.85%
N#CC1=C(N)N2C(=C(C#N)C13CCCCC3)SC1CCCCC12O (stereo unspecified) -12.5% [at 12 µM]
Cc1c(C(=O)OCC2CCCO2)[nH]c2c1C(=O)CC(c1ccco1)C2 (stereo unspecified) -6.77%
CCOC(=O)Cc1nnc(Nc2cccc(C)c2)c2ccccc12 -10.6%
CC(Cc1ccc(O)c(O)c1)C(C)Cc1ccc(O)c(O)c1 (stereo unspecified) -2.89%
O=C(COC(=O)/C=C/c1cccc([N+](=O)[O-])c1)NCc1ccco1 -2.07%
O=C(c1ccc2c(=O)n3c(nc2c1)CCCCC3)N1CCN(C(c2ccccc2)c2ccccc2)CC1 -37.2%
C=C1CCC[C@]2(C)C[C@H]3OC(=O)C(CNC(CC)CO)[C@H]3CC12 (stereo partly specified) -28.1%
CN1CCN(C(c2ccc(Cl)cc2)c2cc(Cl)c3cccnc3c2O)CC1 (stereo unspecified) -88.1%
O=[N+]([O-])c1c(NCCCO)cc(Sc2ccc(Cl)cc2)c2nonc12 -103%
CCOc1ccc2ncc(S(=O)(=O)c3ccc(C)cc3)c(N3CCC4(CC3)OCCO4)c2c1 -75.3%
CCOC(=O)N1CCC(NC(=O)c2cccs2)CC1 -11.4%
CCN(CC)S(=O)(=O)c1ccc(N2CCOCC2)c(NC(=O)c2cc3ccccc3oc2=O)c1 -9.23%
COC(=O)c1ccccc1NC(=S)N(Cc1ccc2c(c1)OCO2)Cc1cc2ccc(OC)cc2[nH]c1=O -6.89%
CC1CCN(C(c2ccc(N(C)C)cc2)c2nnnn2Cc2ccccc2)CC1 (stereo unspecified) -12.3%
N#Cc1c(NC(=O)CSc2nnc(-c3ccccc3)o2)sc2c1CCCC2 12.1%
COc1cc(C(=O)NCCc2ccc(F)cc2)ccc1OCC(=O)N1CCOCC1 2.48%
CCC1C(=NO)C(CC)C(c2ccccc2)NC1c1ccccc1 (stereo unspecified) -80.8%
COc1ccc(-c2nnc(Nc3ccc(CC(N)=O)cc3)c3ccccc23)cc1 -7.72%
CC(C)CN(C(=O)c1cccs1)C1CCS(=O)(=O)C1 (stereo unspecified) -11.8%
Cc1nn(-c2cccc(Cl)c2)c2c1C(c1ccncc1)C(C#N)=C(N)O2 (stereo unspecified) -24.3%
COc1ccc(-c2c(C)nn3c(Cl)c(C)c(C)nc23)cc1 -0.691%
CCNc1ccc(S(=O)(=O)N(C)C)cc1NCC(=O)Nc1ccccc1Br -25.4%
N#Cc1ncc(Cc2ccccc2)nc1C#N -35%
CC(=O)NCCn1ccc2ccccc21 7.55%
Cc1ccccc1N(C(=O)c1csnn1)C(C(=O)NC(C)(C)C)c1ccncc1 (stereo unspecified) 14.5%
O=C(Cn1nc(-c2ccccc2Cl)ccc1=O)Nc1ccccc1-c1ccccc1 -21.6%
O=C(COC(=O)c1ccccc1C(=O)c1ccccc1)Nc1cccc([N+](=O)[O-])c1 -14.3% [at 12 µM]

Part of the list above in order of molecular weight, largest number first:
activation, inactive:
O=C(Cn1nc(-c2ccccc2Cl)ccc1=O)Nc1ccccc1-c1ccccc1 -21.6%
Cc1ccccc1N(C(=O)c1csnn1)C(C(=O)NC(C)(C)C)c1ccncc1 (stereo unspecified) 14.5%
COc1cc(C2CC(c3cccnc3)=NN2c2ccc(F)cc2)cc(OC)c1OC (stereo unspecified) -5.22%
Oc1c(Br)cc(Br)cc1C=Nc1cccc2ncccc12 -4.96%
O=C(Nc1cccc(Cl)c1)C1CCCN(S(=O)(=O)c2ccc(F)cc2)C1 (stereo unspecified) -0.929%
N#Cc1c(NC(=O)CSc2nnc(-c3ccccc3)o2)sc2c1CCCC2 12.1%
O=[N+]([O-])c1c(NCCCO)cc(Sc2ccc(Cl)cc2)c2nonc12 -103%
CCOC(=O)c1sc2c(c1C)C(c1cccs1)C1=C(CCCC1=O)N2 (stereo unspecified) -78.9%
Cc1nn(-c2cccc(Cl)c2)c2c1C(c1ccncc1)C(C#N)=C(N)O2 (stereo unspecified) -24.3%
O=C(COC(=O)/C=C/c1cccc([N+](=O)[O-])c1)NCc1ccco1 -2.07%
Cc1nc2ccccc2n1CC(O)COCC1CC=CCC1 (stereo unspecified) -34.1%
